The record followed here is paper doi:10.1101/383638.

No constants are given. Whether binding was seen depends on the method and setting. In cells and extracts the contact can be indirect. Some binding calls cover weakened binding; strength is not graded here. For some of these results: Tags and fused reporters may be left off the sequences shown.

Experiment [1] deals with T1, TgROP18 of RH strain (bait of the BiFC screen) (Toxoplasma gondii (RH strain, type I)) (UniProt Q2PAY2).
T1 sequence: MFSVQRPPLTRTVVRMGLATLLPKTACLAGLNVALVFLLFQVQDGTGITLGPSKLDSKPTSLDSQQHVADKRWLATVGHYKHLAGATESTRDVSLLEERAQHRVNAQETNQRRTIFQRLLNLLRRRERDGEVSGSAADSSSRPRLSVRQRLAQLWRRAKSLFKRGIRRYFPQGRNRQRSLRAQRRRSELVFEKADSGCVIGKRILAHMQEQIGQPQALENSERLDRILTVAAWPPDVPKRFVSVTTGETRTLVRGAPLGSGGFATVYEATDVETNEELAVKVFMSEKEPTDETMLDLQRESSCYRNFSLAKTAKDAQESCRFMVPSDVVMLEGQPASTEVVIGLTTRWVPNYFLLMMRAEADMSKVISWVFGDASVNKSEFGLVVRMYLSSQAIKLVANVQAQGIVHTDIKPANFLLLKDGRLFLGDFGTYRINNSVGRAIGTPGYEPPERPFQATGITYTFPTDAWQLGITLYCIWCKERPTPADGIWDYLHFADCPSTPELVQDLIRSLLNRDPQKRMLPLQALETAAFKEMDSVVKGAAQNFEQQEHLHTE
Nature of the experiment: split reporter.

Experiment [2] has as its target T2, P2X1 from pEYFP-C1-P2X1 (FRET construct) (human) (UniProt P51575).
T2 sequence: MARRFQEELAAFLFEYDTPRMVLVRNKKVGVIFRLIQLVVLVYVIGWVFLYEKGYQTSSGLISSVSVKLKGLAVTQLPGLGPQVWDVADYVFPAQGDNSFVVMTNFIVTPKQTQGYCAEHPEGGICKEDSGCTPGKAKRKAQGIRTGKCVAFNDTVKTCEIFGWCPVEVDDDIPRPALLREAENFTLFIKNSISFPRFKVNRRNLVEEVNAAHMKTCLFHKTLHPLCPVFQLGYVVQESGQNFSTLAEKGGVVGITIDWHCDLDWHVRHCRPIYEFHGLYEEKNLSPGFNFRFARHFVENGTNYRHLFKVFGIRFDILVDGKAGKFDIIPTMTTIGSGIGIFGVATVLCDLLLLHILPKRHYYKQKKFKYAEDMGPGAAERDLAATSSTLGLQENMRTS
The experiment can be described thus: FRET or BRET. For orientation: Bioluminescence resonance energy transfer reports proximity on the nanometre scale.

For experiment [3], the target named is HA-tagged P2X1 with C terminal deletion (pcDNA3.1(+)-P2X1Δ339-399-HA) (human) (UniProt P51575). The experiment can be described thus: co-IP.
The target in experiment [4] is T3, HA-tagged full-length P2X1 (pcDNA3.1(+)-P2X1-HA) (human) (UniProt P51575).
T3 sequence: T2 sequence
Nature of the experiment: co-IP.

B1: P2X1 (hit of the BiFC screen of human targets) (receptor, UniProt P51575 1-399)
chain: T2 sequence
As for B1, in experiment [1], the binding entry is listed as “binds”.

B2: ROP18 from pECFP-N1-ROP18 (FRET construct) (protein, UniProt Q2PAY2 1-554)
chain: T1 sequence
For B2, the binding result in experiment [2] is recorded as “binds”.

B3: Flag-tagged TgROP18 (pcDNA3.1(+)-ROP18-3×Flag) (protein, UniProt Q2PAY2 1-554)
chain: T1 sequence
B3: the binding result is on record as “no binding” in experiment [3] and “binds” in experiment [4].
